According to patent US20180320177A1, “COMPOSITIONS AND METHODS FOR THE TREATMENT OF LIVER FIBROSIS” (UNIVERSITY OF CONNECTICUT, priority 2015, published 2018):
No constants are given. Whether binding was seen depends on the method and setting. Binding seen in cells or lysates may run through a third protein. Some entries that bind do so weakly or less than the wild type.

Protein sequences, listed by entry. Tags and fused reporters are not part of them.
UniProt P20263: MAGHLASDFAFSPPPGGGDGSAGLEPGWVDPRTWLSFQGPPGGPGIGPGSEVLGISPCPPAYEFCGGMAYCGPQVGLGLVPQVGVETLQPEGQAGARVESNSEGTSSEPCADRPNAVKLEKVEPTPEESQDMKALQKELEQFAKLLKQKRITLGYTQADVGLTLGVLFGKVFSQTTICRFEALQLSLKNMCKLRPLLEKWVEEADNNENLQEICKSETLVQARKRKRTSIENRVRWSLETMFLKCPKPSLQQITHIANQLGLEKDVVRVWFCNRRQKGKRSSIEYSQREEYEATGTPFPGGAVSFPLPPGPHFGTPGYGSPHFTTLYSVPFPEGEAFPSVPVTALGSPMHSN

Columns and labels:
[1] = target: OCT4 protein, endogenous in CGR8 mouse ES cells (mouse) (UniProt P20263); experiment: summary of the co-immunoprecipitation in CGR8 cells
[2] = target: OCT4 protein, endogenous in CGR8 mouse ES cells (mouse) (UniProt P20263); experiment: endogenous co-immunoprecipitation from CGR8 cell lysate with OCT4 antibody, Western blot with HMGB2 antibody

binding [1]: binds
binding [2]: binds
B1: HMGB2 (high mobility box 2) protein, endogenous in CGR8 mouse ES cells (protein, UniProt P30681 1-210, looked up)
chain: MGKGDPNKPRGKMSSYAFFVQTCREEHKKKHPDSSVNFAEFSKKCSERWKTMSAKEKSKFEDLAKSDKARYDREMKNYVPPKGDKKGKKKDPNAPKRPPSAFFLFCSENRPKIKIEHPGLSIGDTAKKLGEMWSEQSAKDKQPYEQKAAKLKEKYEKDIAAYRAKGKSEAGKKGPGRPTGSKKKNEPEDEEEEEEEEEEEDDEEEEEDEE
